± gives the standard deviation of the averaged measurements. This is a selection; strong and weak results do not stand in their true shares. Small differences around the control level are noise.
Compound: Nc1ncnc2c1ncn2[C@@H]1O[C@H](COP(=O)(O)OP(=O)(O)NP(=O)(O)O)[C@@H](O)[C@H]1O [adenylyl imidodiphosphate]
Assay: NP40-soluble protein abundance relative to vehicle (solubility fold change) (ratio); higher = more soluble protein in presence of AMP-PNP
Outline: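 Each value is a fold change relative to the detergent-processed vehicle, calculated per replicate from vsn-normalised intensities. Jurkat crude lysate received eight concentrations (0.1 to 10 mM) for 10 min at room temperature and 3 min at 37 °C, then was solubilised in 0.8% NP40 with benzonase (60 min, 4 °C). The ultracentrifuged supernatant was TMT-labelled and run by LC-MS/MS in three independent experiments.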

Amino acid sequences for entries named in this document (tags omitted). A change or cut given only in a name is not applied to a line headed by its entry.
UniProt P60174, whole entry: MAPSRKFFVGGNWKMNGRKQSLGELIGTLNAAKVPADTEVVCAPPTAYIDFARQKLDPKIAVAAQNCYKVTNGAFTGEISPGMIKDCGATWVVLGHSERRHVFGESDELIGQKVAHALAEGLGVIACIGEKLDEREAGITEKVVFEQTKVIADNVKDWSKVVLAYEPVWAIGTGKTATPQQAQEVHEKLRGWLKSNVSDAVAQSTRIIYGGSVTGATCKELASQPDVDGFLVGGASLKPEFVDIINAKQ
UniProt P62328: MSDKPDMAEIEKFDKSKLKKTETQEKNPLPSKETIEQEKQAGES
UniProt Q00613: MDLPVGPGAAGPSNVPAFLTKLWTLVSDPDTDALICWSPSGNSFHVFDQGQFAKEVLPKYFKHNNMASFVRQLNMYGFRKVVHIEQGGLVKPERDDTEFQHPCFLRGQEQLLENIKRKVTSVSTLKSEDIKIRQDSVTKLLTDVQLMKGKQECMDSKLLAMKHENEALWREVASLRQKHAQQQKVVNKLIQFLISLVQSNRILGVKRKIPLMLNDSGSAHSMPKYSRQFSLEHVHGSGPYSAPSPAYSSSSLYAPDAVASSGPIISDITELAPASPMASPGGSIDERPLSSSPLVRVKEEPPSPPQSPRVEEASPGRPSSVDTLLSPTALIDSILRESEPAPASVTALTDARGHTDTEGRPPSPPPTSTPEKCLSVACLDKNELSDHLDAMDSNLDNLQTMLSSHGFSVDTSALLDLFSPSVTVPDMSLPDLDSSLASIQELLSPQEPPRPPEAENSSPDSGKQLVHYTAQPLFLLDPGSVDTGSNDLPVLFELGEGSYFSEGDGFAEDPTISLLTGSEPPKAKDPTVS
UniProt Q05519: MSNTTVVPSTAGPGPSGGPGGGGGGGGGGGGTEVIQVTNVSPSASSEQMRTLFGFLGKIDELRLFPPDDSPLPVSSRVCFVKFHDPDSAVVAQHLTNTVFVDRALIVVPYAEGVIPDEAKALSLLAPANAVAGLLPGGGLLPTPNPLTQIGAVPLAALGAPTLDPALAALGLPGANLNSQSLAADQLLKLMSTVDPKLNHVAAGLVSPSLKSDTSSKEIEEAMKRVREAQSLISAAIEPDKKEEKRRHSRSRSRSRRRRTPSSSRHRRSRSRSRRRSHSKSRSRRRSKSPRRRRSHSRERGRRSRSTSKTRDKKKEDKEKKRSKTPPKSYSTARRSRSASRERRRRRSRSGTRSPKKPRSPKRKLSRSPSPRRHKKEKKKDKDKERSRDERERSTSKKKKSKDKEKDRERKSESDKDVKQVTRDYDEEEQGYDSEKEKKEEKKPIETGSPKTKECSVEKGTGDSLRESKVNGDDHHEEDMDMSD
UniProt P67936, whole entry: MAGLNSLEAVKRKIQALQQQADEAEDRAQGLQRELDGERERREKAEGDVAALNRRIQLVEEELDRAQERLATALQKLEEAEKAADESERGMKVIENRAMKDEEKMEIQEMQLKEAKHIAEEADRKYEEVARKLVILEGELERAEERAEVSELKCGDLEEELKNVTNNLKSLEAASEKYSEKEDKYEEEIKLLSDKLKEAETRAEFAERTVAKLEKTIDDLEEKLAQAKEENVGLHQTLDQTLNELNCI
UniProt P78345: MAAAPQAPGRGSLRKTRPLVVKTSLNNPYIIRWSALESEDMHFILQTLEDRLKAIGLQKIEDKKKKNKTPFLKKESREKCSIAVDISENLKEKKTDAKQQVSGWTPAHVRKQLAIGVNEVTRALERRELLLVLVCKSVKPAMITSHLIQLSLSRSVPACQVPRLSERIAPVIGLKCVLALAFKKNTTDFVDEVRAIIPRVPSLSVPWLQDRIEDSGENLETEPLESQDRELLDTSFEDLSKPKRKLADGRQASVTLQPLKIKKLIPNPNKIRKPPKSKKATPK
UniProt Q01459: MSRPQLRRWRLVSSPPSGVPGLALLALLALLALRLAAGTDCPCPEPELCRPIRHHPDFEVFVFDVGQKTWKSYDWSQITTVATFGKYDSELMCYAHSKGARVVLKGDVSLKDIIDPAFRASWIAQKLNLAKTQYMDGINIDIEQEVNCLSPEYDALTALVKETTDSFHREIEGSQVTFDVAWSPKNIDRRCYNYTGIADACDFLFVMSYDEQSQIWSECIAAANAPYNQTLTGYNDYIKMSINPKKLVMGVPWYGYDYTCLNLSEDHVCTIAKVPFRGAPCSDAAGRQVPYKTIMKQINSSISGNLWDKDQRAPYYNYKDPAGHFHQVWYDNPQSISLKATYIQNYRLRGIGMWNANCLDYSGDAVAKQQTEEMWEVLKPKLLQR
UniProt P83436: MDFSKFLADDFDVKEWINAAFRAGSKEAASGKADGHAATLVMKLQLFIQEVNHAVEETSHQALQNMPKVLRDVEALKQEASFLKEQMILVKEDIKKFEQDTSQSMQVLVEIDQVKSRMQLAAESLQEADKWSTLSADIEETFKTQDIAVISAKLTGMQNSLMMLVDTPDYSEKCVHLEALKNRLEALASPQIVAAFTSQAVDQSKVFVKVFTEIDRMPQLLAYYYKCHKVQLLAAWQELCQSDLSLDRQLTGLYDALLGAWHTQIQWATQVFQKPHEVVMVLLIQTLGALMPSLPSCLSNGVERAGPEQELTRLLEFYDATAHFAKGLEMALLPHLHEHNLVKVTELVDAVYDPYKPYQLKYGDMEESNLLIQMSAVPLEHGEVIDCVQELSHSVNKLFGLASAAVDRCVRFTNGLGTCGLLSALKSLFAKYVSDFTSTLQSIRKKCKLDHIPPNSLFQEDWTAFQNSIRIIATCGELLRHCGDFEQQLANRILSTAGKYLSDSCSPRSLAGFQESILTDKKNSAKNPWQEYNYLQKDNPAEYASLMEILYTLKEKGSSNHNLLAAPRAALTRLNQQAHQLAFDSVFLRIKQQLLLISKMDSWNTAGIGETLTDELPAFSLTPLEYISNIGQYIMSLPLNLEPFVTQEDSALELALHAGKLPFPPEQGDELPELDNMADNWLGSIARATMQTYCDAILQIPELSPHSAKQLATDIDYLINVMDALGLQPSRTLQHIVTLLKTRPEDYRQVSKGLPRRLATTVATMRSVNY
UniProt Q00978: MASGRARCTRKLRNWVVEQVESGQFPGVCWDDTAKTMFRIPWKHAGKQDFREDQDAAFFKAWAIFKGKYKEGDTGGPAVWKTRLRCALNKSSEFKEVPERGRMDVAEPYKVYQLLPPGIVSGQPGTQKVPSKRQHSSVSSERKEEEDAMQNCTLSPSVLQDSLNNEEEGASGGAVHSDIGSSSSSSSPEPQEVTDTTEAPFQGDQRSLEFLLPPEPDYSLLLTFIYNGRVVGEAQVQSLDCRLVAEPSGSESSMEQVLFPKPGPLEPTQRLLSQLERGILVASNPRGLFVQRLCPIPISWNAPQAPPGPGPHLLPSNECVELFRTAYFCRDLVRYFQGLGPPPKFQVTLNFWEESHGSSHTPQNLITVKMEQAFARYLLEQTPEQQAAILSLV
UniProt Q04656: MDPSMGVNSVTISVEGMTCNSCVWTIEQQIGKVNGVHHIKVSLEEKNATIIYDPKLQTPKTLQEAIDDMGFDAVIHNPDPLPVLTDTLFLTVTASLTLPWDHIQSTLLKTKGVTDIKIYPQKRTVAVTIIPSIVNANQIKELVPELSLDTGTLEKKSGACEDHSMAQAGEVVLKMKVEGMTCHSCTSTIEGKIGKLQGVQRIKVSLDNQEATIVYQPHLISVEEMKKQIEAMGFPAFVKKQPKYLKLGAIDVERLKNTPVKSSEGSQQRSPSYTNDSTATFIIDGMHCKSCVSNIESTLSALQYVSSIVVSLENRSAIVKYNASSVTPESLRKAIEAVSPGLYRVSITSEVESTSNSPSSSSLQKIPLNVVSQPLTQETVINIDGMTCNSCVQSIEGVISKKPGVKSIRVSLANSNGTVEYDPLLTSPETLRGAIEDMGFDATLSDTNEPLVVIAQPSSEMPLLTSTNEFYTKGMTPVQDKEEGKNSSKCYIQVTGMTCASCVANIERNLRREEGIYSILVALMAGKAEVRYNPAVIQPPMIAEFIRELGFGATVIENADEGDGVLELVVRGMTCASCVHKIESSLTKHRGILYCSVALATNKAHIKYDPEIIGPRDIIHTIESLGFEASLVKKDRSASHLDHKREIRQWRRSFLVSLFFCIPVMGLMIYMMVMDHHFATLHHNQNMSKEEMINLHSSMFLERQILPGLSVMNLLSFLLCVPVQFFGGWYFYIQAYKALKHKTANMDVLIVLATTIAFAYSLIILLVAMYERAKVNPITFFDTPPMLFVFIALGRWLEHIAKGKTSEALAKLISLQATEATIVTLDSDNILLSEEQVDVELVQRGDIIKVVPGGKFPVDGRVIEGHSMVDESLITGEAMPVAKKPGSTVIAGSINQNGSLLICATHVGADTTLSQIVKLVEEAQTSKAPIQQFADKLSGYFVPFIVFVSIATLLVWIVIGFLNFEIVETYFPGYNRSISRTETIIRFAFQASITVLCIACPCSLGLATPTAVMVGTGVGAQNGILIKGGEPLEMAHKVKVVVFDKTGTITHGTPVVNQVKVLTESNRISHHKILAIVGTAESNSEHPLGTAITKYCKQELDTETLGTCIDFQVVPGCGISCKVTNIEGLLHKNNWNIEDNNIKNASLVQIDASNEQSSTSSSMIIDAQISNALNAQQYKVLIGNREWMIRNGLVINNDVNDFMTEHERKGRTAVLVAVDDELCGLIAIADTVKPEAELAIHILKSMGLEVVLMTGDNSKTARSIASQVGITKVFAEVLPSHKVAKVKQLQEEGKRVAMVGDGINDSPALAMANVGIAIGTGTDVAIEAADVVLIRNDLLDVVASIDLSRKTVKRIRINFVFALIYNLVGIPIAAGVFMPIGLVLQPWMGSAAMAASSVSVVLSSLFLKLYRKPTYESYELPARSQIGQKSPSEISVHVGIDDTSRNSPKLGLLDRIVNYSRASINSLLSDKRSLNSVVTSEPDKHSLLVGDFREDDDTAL
UniProt P60981: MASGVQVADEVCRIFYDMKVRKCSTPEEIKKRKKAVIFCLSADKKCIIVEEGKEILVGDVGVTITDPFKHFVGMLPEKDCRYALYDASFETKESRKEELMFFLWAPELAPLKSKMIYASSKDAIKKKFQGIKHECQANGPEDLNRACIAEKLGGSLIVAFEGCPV
UniProt P55769: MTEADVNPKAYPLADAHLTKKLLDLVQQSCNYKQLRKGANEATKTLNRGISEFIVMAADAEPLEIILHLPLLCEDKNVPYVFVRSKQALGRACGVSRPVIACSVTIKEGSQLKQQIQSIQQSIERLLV
UniProt Q00059: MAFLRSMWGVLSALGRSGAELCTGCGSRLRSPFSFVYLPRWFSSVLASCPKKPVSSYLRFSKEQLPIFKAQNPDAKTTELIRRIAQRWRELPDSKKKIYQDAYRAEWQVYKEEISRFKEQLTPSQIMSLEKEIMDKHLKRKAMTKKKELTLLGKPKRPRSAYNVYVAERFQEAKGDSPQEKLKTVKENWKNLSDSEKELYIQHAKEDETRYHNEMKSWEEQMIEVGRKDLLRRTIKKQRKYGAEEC
UniProt P62310: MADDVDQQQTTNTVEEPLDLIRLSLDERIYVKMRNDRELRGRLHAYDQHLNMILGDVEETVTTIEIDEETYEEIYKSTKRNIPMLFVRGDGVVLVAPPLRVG
UniProt Q00266: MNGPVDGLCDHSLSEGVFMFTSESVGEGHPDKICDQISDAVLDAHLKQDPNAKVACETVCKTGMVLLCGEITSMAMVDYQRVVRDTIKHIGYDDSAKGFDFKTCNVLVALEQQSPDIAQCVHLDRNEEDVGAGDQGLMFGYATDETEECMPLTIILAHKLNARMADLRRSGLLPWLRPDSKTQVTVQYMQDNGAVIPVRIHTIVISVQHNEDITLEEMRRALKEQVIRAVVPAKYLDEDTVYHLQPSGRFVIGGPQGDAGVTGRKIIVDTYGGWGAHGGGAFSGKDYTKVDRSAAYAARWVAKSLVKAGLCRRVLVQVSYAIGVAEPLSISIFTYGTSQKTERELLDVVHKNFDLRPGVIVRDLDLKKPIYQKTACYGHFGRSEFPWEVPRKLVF
UniProt Q07666, whole entry: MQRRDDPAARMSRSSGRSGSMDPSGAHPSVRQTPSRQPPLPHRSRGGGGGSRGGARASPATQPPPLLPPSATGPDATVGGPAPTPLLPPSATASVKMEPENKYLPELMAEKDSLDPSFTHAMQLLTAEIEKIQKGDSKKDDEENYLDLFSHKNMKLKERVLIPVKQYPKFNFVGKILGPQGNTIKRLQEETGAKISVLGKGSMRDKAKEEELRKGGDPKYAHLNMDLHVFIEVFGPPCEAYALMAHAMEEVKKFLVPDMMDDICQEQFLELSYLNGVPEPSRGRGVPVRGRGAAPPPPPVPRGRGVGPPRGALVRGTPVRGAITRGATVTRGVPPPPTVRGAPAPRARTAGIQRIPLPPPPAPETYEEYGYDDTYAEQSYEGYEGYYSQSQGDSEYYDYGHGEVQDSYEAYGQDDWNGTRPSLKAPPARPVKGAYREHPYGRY

Target | NP40-soluble protein abundance (concentration: 0.1mM) | NP40-soluble protein abundance (concentration: 0.5mM)
UniProt P60174 and related entries | 0.984 ± 0.018 | 1.02 ± 0.055
TMSB4X (UniProt P62328) | 1.01 ± 0.077 | 0.963 ± 0.095
UniProt Q00613 and related entries | 1.01 ± 0.045 | 1.02 ± 0.028
UniProt P61927 | 0.994 ± 0.028 | 1.03 ± 0.029
PFKP (UniProt Q01813) | 1.01 ± 0.026 | 1.016 ± 0.0077
UniProt Q05519 and related entries | 1.15 ± 0.015 | 1.1 ± 0.038
NUP107 (UniProt P57740) | 0.989 ± 0.029 | 0.986 ± 0.032
TPM4 (UniProt P67936) | 1.07 ± 0.073 | 1.31 ± 0.17
RPP38 (UniProt P78345) | 0.995 ± 0.052 | 0.985 ± 0.096
UniProt P62899 | 1.04 ± 0.015 | 1.01 ± 0.03
CTBS (UniProt Q01459) | 0.989 ± 0.012 | 1 ± 0.028
UniProt P62280 | 1.02 ± 0.063 | 1.02 ± 0.082
UniProt P62081 | 1.03 ± 0.021 | 1.01 ± 0.041
MRPS5 (UniProt P82675) | 1.03 ± 0.023 | 0.979 ± 0.071
Q05GC8 and related entries (UniProt Q96PN7+Q05GC8) | 0.9754 ± 0.0037 | 1.013 ± 0.0064
COG7 (UniProt P83436) | 1.01 ± 0.027 | 1 ± 0.026
UniProt Q01826 and related entries | 1 ± 0.031 | 1.02 ± 0.04

Full records as entered above.
NUP107 (UniProt P57740) is listed as NP40-soluble protein abundance (concentration: 0.1mM): 0.989 ± 0.029; NP40-soluble protein abundance (concentration: 0.5mM): 0.986 ± 0.032
RPP38 (UniProt P78345) is listed as NP40-soluble protein abundance (concentration: 0.1mM): 0.995 ± 0.052; NP40-soluble protein abundance (concentration: 0.5mM): 0.985 ± 0.096

Additional records:

Target | NP40-soluble protein abundance (concentration: 0.1mM) | NP40-soluble protein abundance (concentration: 0.5mM)
UniProt Q02880 and related entries | 1.38 ± 0.03 | 1.49 ± 0.063
UniProt Q00978 and related entries | 1.02 ± 0.018 | 0.995 ± 0.027
UniProt Q04656 and related entries | 0.99 ± 0.016 | 0.976 ± 0.022
DSTN (UniProt P60981) | 0.975 ± 0.045 | 1.03 ± 0.091
UniProt P62805 | 1.03 ± 0.11 | 0.973 ± 0.099
UniProt Q08209 and related entries | 1.02 ± 0.014 | 1.02 ± 0.032
DHX9 (UniProt Q08211) | 1.11 ± 0.02 | 1.19 ± 0.093
UniProt P56270-2 | 0.976 ± 0.028 | 1.02 ± 0.021
SP4 (UniProt Q02446) | 0.988 ± 0.038 | 0.99 ± 0.032
UniProt P55769 | 1.03 ± 0.027 | 1.07 ± 0.032
ALDH6A1 (UniProt Q02252) | 0.9951 ± 0.0046 | 0.985 ± 0.028
TFAM (UniProt Q00059) | 1.02 ± 0.12 | 1.05 ± 0.17
UniProt P62310 | 0.987 ± 0.011 | 0.965 ± 0.026
UniProt Q00266 and related entries | 1.03 ± 0.044 | 0.993 ± 0.08
KHDRBS1 (UniProt Q07666) | 1.03 ± 0.038 | 1.04 ± 0.068
UniProt P61160 | 1.027 ± 0.0092 | 1.03 ± 0.016
